Laboratory results from article PMC2822766.
Results are given in words; binding and its absence hold for the method and conditions named. In cells and extracts the contact can be indirect. Binding calls can cover weak binding; strength is not graded here. Where a sequence is shown, tags or fusion partners need not be part of it.

Chains of the proteins cited; added tags and fusions are not shown. Lines headed by an entry give the natural chain unless they say otherwise; changes in a name come on top.
UniProt Q9Y2W7: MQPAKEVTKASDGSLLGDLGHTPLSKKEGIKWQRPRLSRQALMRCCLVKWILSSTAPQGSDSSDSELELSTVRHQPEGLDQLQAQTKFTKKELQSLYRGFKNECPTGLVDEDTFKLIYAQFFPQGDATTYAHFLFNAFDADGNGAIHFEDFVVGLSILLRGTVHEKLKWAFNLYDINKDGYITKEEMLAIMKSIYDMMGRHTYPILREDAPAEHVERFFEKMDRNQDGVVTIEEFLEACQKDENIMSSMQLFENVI

B1: KChIP-1, Myc-tagged (protein, UniProt Q9NZI2 1-227)
chain: MGAVMGTFSSLQTKQRRPSKDIAWWYYQYQRDKIEDELEMTMVCHRPEGLEQLEAQTNFTKRELQVLYRGFKNECPSGVVNEDTFKQIYAQFFPHGDASTYAHYLFNAFDTTQTGSVKFEDFVTALSILLRGTVHEKLRWTFNLYDINKDGYINKEEMMDIVKAIYDMMGKYTYPVLKEDTPRQHVDVFFQKMDKNKDGIVTLDEFLESCQEDDNIMRSLQLFQNVM
B2: KChIP-2, Myc-tagged (protein, UniProt Q9NS61 1-270)
chain: MRGQGRKESLSDSRDLDGSYDQLTGHPPGPTKKALKQRFLKLLPCCGPQALPSVSETLAAPASLRPHRPRLLDPDSVDDEFELSTVCHRPEGLEQLQEQTKFTRKELQVLYRGFKNECPSGIVNEENFKQIYSQFFPQGDSSTYATFLFNAFDTNHDGSVSFEDFVAGLSVILRGTVDDRLNWAFNLYDLNKDGCITKEEMLDIMKSIYDMMGKYTYPALREEAPREHVESFFQKMDRNKDGVVTIEEFIESCQKDENIMRSMQLFDNVI
B3: KChIP-4, Myc-tagged (protein, UniProt Q6PIL6 1-250)
chain: MNVRRVESISAQLEEASSTGGFLYAQNSTKRSIKERLMKLLPCSAAKTSSPAIQNSVEDELEMATVRHRPEALELLEAQSKFTKKELQILYRGFKNECPSGVVNEETFKEIYSQFFPQGDSTTYAHFLFNAFDTDHNGAVSFEDFIKGLSILLRGTVQEKLNWAFNLYDINKDGYITKEEMLDIMKAIYDMMGKCTYPVLKEDAPRQHVETFFQKMDKNKDGVVTIDEFIESCQKDENIMRSMQLFENVI

target: Ca2+ insensitive mutant DREAM, Flag-tagged (TgDREAM-Flag) (UniProt Q9Y2W7); assay: co-IP; differentially tagged proteins (TgDREAM-Flag and Myc-tagged DREAM/KChIP 1 to 4) after overexpression in HEK293 cells; which tag was precipitated is not told

binding, binds:
B1
B2
B3
